Some of the results follow. Single values are uncertain, as repeats are few or missing.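 Cells were imaged in 1,536-well plates, and nuclei stained with an antibody against cleaved PARP were counted against all DNA-stained nuclei to give the apoptosis fraction. Screening doses were chosen to leave most cells alive, and resting and induced cleaved-PARP levels differ strongly between cell lines.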
test system: CBRC014 (line from a melanoma biopsy); assay: cleaved PARP positive nuclei fraction relative to DMSO control; melanoma cells; higher = more apoptosis; conditions: library dose: low library concentration; 72 h

Row | Structure (SMILES) | cleaved PARP positive nuclei fraction [%]
1 | CCCCCCCCCCCCCCCCCCOP(=O)([O-])OC1CC[N+](C)(C)CC1 [Perifosine] + C[As](C)SC[C@H](NC(=O)CC[C@H](N)C(=O)O)C(=O)NCC(=O)O [Darinaparsin] (first compound 0.4 µM, partner dose 0.4 µM) | 109
2 | CC(=O)O[C@@]12CO[C@@H]1C[C@H](O)[C@@]1(C)C(=O)[C@H](O)C3=C(C)[C@@H](OC(=O)[C@H](O)[C@@H](NC(=O)OC(C)(C)C)c4ccccc4)C[C@@](O)([C@@H](OC(=O)c4ccccc4)[C@H]21)C3(C)C [Docetaxel] + N.N.[Cl][Pt][Cl] [cisplatin] (first compound 0.0001 µM, partner dose 1.6 µM) | 158
3 | N.N.[Cl][Pt][Cl] [cisplatin] + C#Cc1cccc(Nc2ncnc3cc(OCCOC)c(OCCOC)cc23)c1 [erlotinib] (first compound 1.6 µM, partner dose 0.8 µM) | 129
4 | C[As](C)SC[C@H](NC(=O)CC[C@H](N)C(=O)O)C(=O)NCC(=O)O [Darinaparsin] + Cc1nc(Nc2ncc(C(=O)Nc3c(C)cccc3Cl)s2)cc(N2CCN(CCO)CC2)n1 [dasatanib] (first compound 0.4 µM, partner dose 0.004 µM) | 119
5 | Cn1sc(=O)n(Cc2ccccc2)c1=O + C[As](C)SC[C@H](NC(=O)CC[C@H](N)C(=O)O)C(=O)NCC(=O)O [Darinaparsin] (first compound 0.4 µM, partner dose 0.4 µM) | 104
6 | C[C@]12O[C@H](C[C@]1(O)CO)n1c3ccccc3c3c4c(c5c6ccccc6n2c5c31)CNC4=O [Lestaurtinib] + C[C@]1(c2nc3c(C(N)=O)cccc3[nH]2)CCCN1 [Veliparib] (first compound 0.004 µM, partner dose 1.4 µM) | 91
7 | Cn1cc(C2=C(c3cn(C4CCN(Cc5ccccn5)CC4)c4ccccc34)C(=O)NC2=O)c2ccccc21 [Enzastaurin] + CN1CCN(c2ccc3nc(-c4c(N)c5c(F)cccc5[nH]c4=O)[nH]c3c2)CC1 [Dovitinib] (first compound 0.8 µM, partner dose 0.1 µM) | 95.5
8 | CCCCCCCCc1ccc(CCC(N)(CO)CO)cc1 [fingolimod] + N.N.[Cl][Pt][Cl] [cisplatin] (first compound 2 µM, partner dose 1.6 µM) | 123
9 | Cn1cc(C2=C(c3cn(C4CCN(Cc5ccccn5)CC4)c4ccccc34)C(=O)NC2=O)c2ccccc21 [Enzastaurin] + CCCS(=O)(=O)Nc1ccc(F)c(C(=O)c2c[nH]c3ncc(Cl)cc23)c1F [PLX4720] (first compound 0.8 µM, partner dose 0.08 µM) | 114
10 | CC1(C)CCC(c2ccc(Cl)cc2)=C(CN2CCN(c3ccc(C(=O)NS(=O)(=O)c4ccc(N[C@H](CCN5CCOCC5)CSc5ccccc5)c(S(=O)(=O)C(F)(F)F)c4)cc3)CC2)C1 + N.N.[Cl][Pt][Cl] [cisplatin] (first compound 0.4 µM, partner dose 1.6 µM) | 559
11 | Cn1cc(C2=C(c3cn(C4CCN(Cc5ccccn5)CC4)c4ccccc34)C(=O)NC2=O)c2ccccc21 [Enzastaurin] + Nc1ccn([C@@H]2O[C@H](CO)[C@@H](O)C2(F)F)c(=O)n1 [gemcitabine] (first compound 0.8 µM, partner dose 0.0004 µM) | 126
12 | N.N.[Cl][Pt][Cl] [cisplatin] + Nc1ncn([C@H]2C[C@H](O)[C@@H](CO)O2)c(=O)n1 [decitabine] (first compound 1.6 µM, partner dose 0.1 µM) | 156
13 | Cn1sc(=O)n(Cc2ccccc2)c1=O + C[C@]12O[C@H](C[C@]1(O)CO)n1c3ccccc3c3c4c(c5c6ccccc6n2c5c31)CNC4=O [Lestaurtinib] (first compound 0.4 µM, partner dose 0.004 µM) | 102
14 | Cn1cc(C2=C(c3cn(C4CCN(Cc5ccccn5)CC4)c4ccccc34)C(=O)NC2=O)c2ccccc21 [Enzastaurin] + COCC[n+]1c2c(n(Cc3cnccn3)c1C)C(=O)c1ccccc1C2=O [YM155] (first compound 0.8 µM, partner dose 0.0004 µM) | 99.1
15 | C[C@]1(O)C[C@@H](c2nc(-c3ccc4ccc(-c5ccccc5)nc4c3)c3c(N)nccn32)C1 + N.N.[Cl][Pt][Cl] [cisplatin] (first compound 0.4 µM, partner dose 1.6 µM) | 143
16 | C[C@]12O[C@H](C[C@]1(O)CO)n1c3ccccc3c3c4c(c5c6ccccc6n2c5c31)CNC4=O [Lestaurtinib] + CC(C)C[C@H](NC(=O)[C@H](Cc1ccccc1)NC(=O)c1cnccn1)B(O)O [Bortezomib] (first compound 0.004 µM, partner dose 0.001 µM) | 153
17 | COc1ccc(C2=N[C@@H](c3ccc(Cl)cc3)[C@@H](c3ccc(Cl)cc3)N2C(=O)N2CCNC(=O)C2)c(OC(C)C)c1 [Nutlin-3] + C[C@]12O[C@H](C[C@]1(O)CO)n1c3ccccc3c3c4c(c5c6ccccc6n2c5c31)CNC4=O [Lestaurtinib] (first compound 0.1 µM, partner dose 0.004 µM) | 111
18 | C=CCNC1=C2C[C@@H](C)C[C@H](OC)[C@H](O)[C@@H](C)/C=C(\C)[C@H](OC(N)=O)[C@@H](OC)/C=C\C=C(/C)C(=O)NC(=CC1=O)C2=O [Tanespimycin] + C[As](C)SC[C@H](NC(=O)CC[C@H](N)C(=O)O)C(=O)NCC(=O)O [Darinaparsin] (first compound 0.002 µM, partner dose 0.4 µM) | 113
19 | COc1ccc(C2=N[C@@H](c3ccc(Cl)cc3)[C@@H](c3ccc(Cl)cc3)N2C(=O)N2CCNC(=O)C2)c(OC(C)C)c1 [Nutlin-3] + C[As](C)SC[C@H](NC(=O)CC[C@H](N)C(=O)O)C(=O)NCC(=O)O [Darinaparsin] (first compound 0.1 µM, partner dose 0.4 µM) | 86.2
20 | Cn1cc(C2=C(c3cn(C4CCN(Cc5ccccn5)CC4)c4ccccc34)C(=O)NC2=O)c2ccccc21 [Enzastaurin] + CNC(=O)c1cc(Oc2ccc(NC(=O)Nc3ccc(Cl)c(C(F)(F)F)c3)cc2)ccn1 [sorafenib] (first compound 0.8 µM, partner dose 0.4 µM) | 97
21 | C[C@]12O[C@H](C[C@]1(O)CO)n1c3ccccc3c3c4c(c5c6ccccc6n2c5c31)CNC4=O [Lestaurtinib] + CO[C@H]1C[C@@H]2CC[C@@H](C)[C@@](O)(O2)C(=O)C(=O)N2CCCC[C@H]2C(=O)O[C@H]([C@H](C)C[C@@H]2CC[C@@H](OCCO)[C@H](OC)C2)CC(=O)[C@H](C)/C=C(\C)[C@@H](O)[C@@H](OC)C(=O)[C@H](C)C[C@H](C)/C=C/C=C/C=C/1C [everolimus] (first compound 0.004 µM, partner dose 0.02 µM) | 90
22 | N.N.[Cl][Pt][Cl] [cisplatin] + Cn1c(Nc2ccc(C(F)(F)F)cc2)nc2cc(Oc3ccnc(-c4ncc(C(F)(F)F)[nH]4)c3)ccc21 [CHIR265] (first compound 1.6 µM, partner dose 0.08 µM) | 120
23 | C[C@]12O[C@H](C[C@]1(O)CO)n1c3ccccc3c3c4c(c5c6ccccc6n2c5c31)CNC4=O [Lestaurtinib] + C=C(c1ccc(C(=O)O)cc1)c1cc2c(cc1C)C(C)(C)CCC2(C)C [Bexarotene] (first compound 0.004 µM, partner dose 2 µM) | 91.9
24 | N.N.[Cl][Pt][Cl] [cisplatin] + CO[C@H]1C[C@@H]2CC[C@@H](C)[C@@](O)(O2)C(=O)C(=O)N2CCCC[C@H]2C(=O)O[C@H]([C@H](C)C[C@@H]2CC[C@@H](OCCO)[C@H](OC)C2)CC(=O)[C@H](C)/C=C(\C)[C@@H](O)[C@@H](OC)C(=O)[C@H](C)C[C@H](C)/C=C/C=C/C=C/1C [everolimus] (first compound 1.6 µM, partner dose 0.02 µM) | 125
25 | COc1ccc(C2=N[C@@H](c3ccc(Cl)cc3)[C@@H](c3ccc(Cl)cc3)N2C(=O)N2CCNC(=O)C2)c(OC(C)C)c1 [Nutlin-3] + N.N.[Cl][Pt][Cl] [cisplatin] (first compound 0.1 µM, partner dose 1.6 µM) | 103
26 | Cn1sc(=O)n(Cc2ccccc2)c1=O + N.N.[Cl][Pt][Cl] [cisplatin] (first compound 0.4 µM, partner dose 1.6 µM) | 108
27 | Cn1cc(C2=C(c3cn(C4CCN(Cc5ccccn5)CC4)c4ccccc34)C(=O)NC2=O)c2ccccc21 [Enzastaurin] + CN(c1ncccc1CNc1nc(Nc2ccc3c(c2)CC(=O)N3)ncc1C(F)(F)F)S(C)(=O)=O [PF562271] (first compound 0.8 µM, partner dose 0.08 µM) | 91.1
28 | C[C@]12O[C@H](C[C@]1(O)CO)n1c3ccccc3c3c4c(c5c6ccccc6n2c5c31)CNC4=O [Lestaurtinib] + CCCS(=O)(=O)Nc1ccc(F)c(C(=O)c2c[nH]c3ncc(Cl)cc23)c1F [PLX4720] (first compound 0.004 µM, partner dose 0.08 µM) | 87.1
29 | C[C@]12O[C@H](C[C@]1(O)CO)n1c3ccccc3c3c4c(c5c6ccccc6n2c5c31)CNC4=O [Lestaurtinib] + COc1ccc(Cl)c(Nc2nc3ccccc3nc2NS(=O)(=O)c2cccc(NC(=O)C(C)(C)N)c2)c1 [XL147] (first compound 0.004 µM, partner dose 0.8 µM) | 245

Already shown: entries from further up.
Row | Structure (SMILES) | cleaved PARP positive nuclei fraction [%]
5 | Cn1sc(=O)n(Cc2ccccc2)c1=O + C[As](C)SC[C@H](NC(=O)CC[C@H](N)C(=O)O)C(=O)NCC(=O)O [Darinaparsin] (first compound 0.4 µM, partner dose 0.4 µM) | 104
6 | C[C@]12O[C@H](C[C@]1(O)CO)n1c3ccccc3c3c4c(c5c6ccccc6n2c5c31)CNC4=O [Lestaurtinib] + C[C@]1(c2nc3c(C(N)=O)cccc3[nH]2)CCCN1 [Veliparib] (first compound 0.004 µM, partner dose 1.4 µM) | 91

From the supplement of paper PMC4604168 (melanoma cell lines)
